The campaign covered roughly 6,900 compounds. Fewer than 10 were called active. Calls come from the whole dose curve; as a rule, active = well fitted curve in the direction sought with a large enough effect; inconclusive = small, poorly fitted or top-dose-only effect, or another doubt; inactive = no such curve, though single readings can be large or run the other way. The list shows a part of the results.
What follows are compounds tested against Metallo-beta-lactamase type 2 (Klebsiella pneumoniae) (UniProt C7C422) (assay: qHTS to identify inhibitors of the New Delhi Metallo-beta-lactamase (NDM): primary screen against the NCATS Gemini Collection). Conditions: NDM-1 enzyme, meropenem hydrolysis, absorbance 300 nm; at 38.4 µM (top of the series) unless noted.
Outline: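 NDM-1 at 2 nM final in 50 mM HEPES pH 7.0, 1 uM ZnSO4, 0.01% Tween20, preincubated >30 min with compound. Meropenem 50 uM final added; absorbance at 300 nm after 30 min.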
Note: % of control where 0% means no effect.

Chains of the proteins cited; added tags and fusions are not shown. Lines headed by an entry give the natural chain unless they say otherwise; changes in a name come on top.
UniProt C7C422: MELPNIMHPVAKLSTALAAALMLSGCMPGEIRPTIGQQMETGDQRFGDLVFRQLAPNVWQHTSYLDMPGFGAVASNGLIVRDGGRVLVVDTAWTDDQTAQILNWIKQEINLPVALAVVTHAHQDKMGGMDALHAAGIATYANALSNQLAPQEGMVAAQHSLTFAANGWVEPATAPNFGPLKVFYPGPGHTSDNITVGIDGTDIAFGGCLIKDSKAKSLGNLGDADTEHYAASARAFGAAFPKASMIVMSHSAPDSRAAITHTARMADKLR

Structure (SMILES) | activity % (negative = inhibition)
CC(C)CN1CCN(c2nc(CCN)nc3ccccc23)CC1CCO (configuration not stated) | inactive: 6.5%
Cc1cc(C(=O)N2CCC(OCCOc3ccc(F)cc3)CC2)nn1C | inactive: -0.543%
O=C1NC2(Cc3ccccc31)CN([S+](=O)([O-])c1cccs1)C2 | inactive: -5.09%
COc1cc(=O)n2c(c1C(=O)NC1CCCCCC1)CCCC2 | inactive: 49.1%
O=C(O)c1cc(-c2ccncc2)cc(S(=O)(=O)N2CCCCCC2)c1 | inactive: 45.2%
O=C1CO[C@H]2CCN(Cc3ccccn3)CC[C@@H]2N1c1ccccc1 | inactive: 6.2% [at 57.5 µM]
COc1ccccc1CC(=O)N1CCCc2ncc(C(=O)Nc3cccc(Cl)c3)cc21 | inactive: 2.72% [at 57.5 µM]
O=C1c2cc(N3CCOCC3)nc(-c3cccc(CO)c3)c2CN1c1ccccc1 | inactive: 8.58% [at 57.5 µM]
COc1ncccc1-c1n[nH]c2c1CC(=O)N(Cc1ccccc1)C2 | inactive: 22.7% [at 57.5 µM]
CN1CCN(CCCNC(=O)C2(CCO)CCN(Cc3ccccc3)C2)CC1 (configuration not stated) | inactive: -11.1%
CC(O)CCNS(=O)(=O)c1ccc2c(c1)CN(C(=O)c1ccon1)CC2 (configuration not stated) | inactive: 16.7%
COc1ccc2[nH]c(CNc3cc(C4CC(N)C4)nc(C)n3)cc2c1 (configuration not stated) | inactive: 3.15%
COc1ccc(CN2CCN(C(=O)[C@H]3CCC[C@@H](O)C3)CC2=O)cc1 | inactive: 4.05%
CC1(C)[C@H](Cc2cc(COc3ccccc3)on2)C[C@@H]1NC1CCC1 | inactive: -3.56% [at 57.5 µM]
CN1C(=O)CS(=O)C12CCN(C(=O)C1(c3ccccc3)CC1)CC2 (configuration not stated) | inactive: -1.38%
COCCNC(=O)C[C@@H]1C[C@@H](C(C)C)[C@H](CNC(=O)c2cnccn2)C=C1C | inactive: 2.94% [at 57.5 µM]
CC(=O)N1CCC([C@@H]2CN(Cc3cccnc3)C[C@H]2CO)CC1 | inactive: -0.828%
O=C(c1cccc([N+](=O)[O-])c1)N1CCc2c(c3ccccc3n2CC2CC2)C1 | inactive: 15.4%
COc1ccccc1OCCNC(=O)c1cn2ccnc(-c3ccc(C)cc3)c2n1 | inactive: 5.37%
CC(=O)NC1(C)CCN(Cc2cnc(-c3ccc4c(ccn4C)c3)s2)CC1 | inactive: 12.1% [at 57.5 µM]
O=C(Cc1ccccc1)N1CCCC1c1nc(CCOCC2CC2)no1 (configuration not stated) | inactive: 3.65%

Exported as tab-separated lines: part of the list above.
Structure (SMILES)	activity % (negative = inhibition)
CC(C)CN1CCN(c2nc(CCN)nc3ccccc23)CC1CCO (configuration not stated)	inactive: 6.5%
O=C1NC2(Cc3ccccc31)CN([S+](=O)([O-])c1cccs1)C2	inactive: -5.09%
COc1cc(=O)n2c(c1C(=O)NC1CCCCCC1)CCCC2	inactive: 49.1%
O=C1CO[C@H]2CCN(Cc3ccccn3)CC[C@@H]2N1c1ccccc1	inactive: 6.2% [at 57.5 µM]
COc1ncccc1-c1n[nH]c2c1CC(=O)N(Cc1ccccc1)C2	inactive: 22.7% [at 57.5 µM]
COc1ccc2[nH]c(CNc3cc(C4CC(N)C4)nc(C)n3)cc2c1 (configuration not stated)	inactive: 3.15%
CN1C(=O)CS(=O)C12CCN(C(=O)C1(c3ccccc3)CC1)CC2 (configuration not stated)	inactive: -1.38%
CC(=O)N1CCC([C@@H]2CN(Cc3cccnc3)C[C@H]2CO)CC1	inactive: -0.828%
COc1ccccc1OCCNC(=O)c1cn2ccnc(-c3ccc(C)cc3)c2n1	inactive: 5.37%
CC(=O)NC1(C)CCN(Cc2cnc(-c3ccc4c(ccn4C)c3)s2)CC1	inactive: 12.1% [at 57.5 µM]

The list goes on.

Structure (SMILES) | activity % (negative = inhibition)
Cc1cc(OC2CN([S+](=O)([O-])c3cccs3)C2)ccc1F | inactive: -0.389% [at 57.5 µM]
CCCNC(=O)N1CCOC[C@H](Oc2ccc(OC)cc2)C1 | inactive: 11.1% [at 57.5 µM]
c1ccc(CN2CCC(Cc3ccc(CN4CCCC4)cc3)CC2)nc1 | inactive: -1.57%
COCCNC(=O)C1CCc2sc(C(=O)N(C)C)cc2C1 (configuration not stated) | inactive: -10.8%
Cc1ccoc1C(=O)N1CCc2c(nc(-c3cccnc3)nc2N(C)C)C1 | inactive: 56.2%
CNC(=O)[C@@H]1C[C@H](n2cc(-c3ccc(CN4CC[C@@H](O)C4)cc3)nn2)CN1 | inactive: 3.01%
COc1ccc(CN2Cc3[nH]nc(-c4cnc(OC)nc4)c3CC2=O)cc1 | inactive: 3.12% [at 57.5 µM]
Cc1cnc(-c2ccncc2)n1CCN | inactive: 27.4%
COC[C@@H]1CN(C(=O)c2ncccc2C)C[C@H]1C(N)=O | inactive: -1.45%
CS(=O)(=O)N1CCC(Oc2ccc(C(=O)NCCc3ccccn3)cc2Cl)CC1 | inactive: 4.77%
O=C1CCN(CC(O)C(F)(F)F)c2ccccc2CCN1Cc1ccccc1 (configuration not stated) | inactive: 0.677% [at 16.1 µM]
COc1ccc(CCNC(=O)c2c(C)noc2-c2cc(OC)cc(OC)c2)cc1 | inactive: 0.485%
Cc1noc(C)c1CC(=O)N1CCCCCCNC(=O)[C@@H]2CCCC[C@@H]21 | inactive: 7.62%
CCCCN1C(=O)CC[C@H]2CN(C(=O)Cc3c[nH]c(=O)n(C)c3=O)CC[C@H]21 | inactive: 1.9%
CCOc1ccccc1CN1CCC(C)(c2noc(C3CCOCC3)n2)CC1 | inactive: -5.78%
Cc1nc(-c2cccc(Cl)c2)n(CC(=O)NCc2ccc(F)cc2)c(=O)c1CCO | inactive: 7.94%
O=C(c1cncs1)N1CCc2c(cc(-c3cccc(F)c3)c(=O)n2CCN2CCCCC2)C1 | inactive: 3.53%
CS(=O)(=O)N1CCCOCCNC(=O)[C@@H]2CCC[C@@H]21 | inactive: 4.06%
CN1CCN(Cc2nc(C3(O)CCN(Cc4ccccc4C(F)(F)F)CC3)cs2)CC1 | inactive: -3.96%
O=C(N[C@H]1CCN2C(=O)c3ccccc3NC(=O)[C@H]12)c1cccc(F)c1 | inactive: 6.56% [at 57.5 µM]
CC(=O)N1CCN(C(=O)c2cnc(N)nc2-c2ccccc2)CC(O)C1 (configuration not stated) | inactive: -0.312%

Reference: PubChem BioAssay AID1794845 (National Center for Advancing Translational Sciences (NCATS), 2023)
